{"source": "PubChem BioAssay AID1259308 – NCATS, 2017", "purpose": "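Knock-downs that increase output of a recombinant reporter protein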 (primary screen)", "system": "human HEK293 embryonic kidney cells stably expressing firefly luciferase (HEK-CMV-Luc2-Hygro)", "reagent": "single siRNA against human genes, 0.8 pmol siRNA per well", "timing": "72 h", "read-out": "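Luciferase light (ONE-Glo) measured on one replicate plate set and viability (CellTiter-Glo) on the other, scaled to a negative control siRNA, with robust z-scores and luciferase per cell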", "direction": "total luciferase, z-score and total luciferase, % of control: higher = more reporter protein produced", "active means": "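Active when the median/MAD z-score for overall luciferase is greater than 3; a gene was taken forward for validation with new siRNAs if at least two of its three siRNAs passed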", "calls": "active = raised luciferase; inactive = no rise", "note": "In all, the deposit lists about 59,000 reagents; this is a part drawn at random. In the full data, about 1,510 (2.6%) were called active. 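Calls use total luciferase alone and ignore viability, so some active siRNAs may act by altering cell number.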 A number with no mark means an inactive call. The numbers tell different reagents against one gene apart. Not all columns of the deposit are shown. Reagent sequences are not shown."}
{"gene": "EOMES (eomesodermin)", "siRNA no.": 1, "total luciferase, z-score": 0.864, "total luciferase, % of control": 99.1}
{"gene": "EOMES (eomesodermin)", "siRNA no.": 2, "total luciferase, z-score": -0.801, "total luciferase, % of control": 66}
{"gene": "EOMES (eomesodermin)", "siRNA no.": 3, "total luciferase, z-score": 0.407, "total luciferase, % of control": 90}
{"gene": "ACP7 (acid phosphatase 7, tartrate resistant (putative))", "siRNA no.": 1, "total luciferase, z-score": -0.93, "total luciferase, % of control": 63.4}
{"gene": "ACP7 (acid phosphatase 7, tartrate resistant (putative))", "siRNA no.": 2, "total luciferase, z-score": -1.48, "total luciferase, % of control": 52.4}
{"gene": "ACP7 (acid phosphatase 7, tartrate resistant (putative))", "siRNA no.": 3, "total luciferase, z-score": -1.74, "total luciferase, % of control": 47.3}
{"gene": "RHCE (Rh blood group CcEe antigens)", "siRNA no.": 1, "total luciferase, z-score": "3.09 (active)", "total luciferase, % of control": 143}
{"gene": "RHCE (Rh blood group CcEe antigens)", "siRNA no.": 2, "total luciferase, z-score": -0.604, "total luciferase, % of control": 69.9}
{"gene": "RHCE (Rh blood group CcEe antigens)", "siRNA no.": 3, "total luciferase, z-score": -0.704, "total luciferase, % of control": 67.9}
{"gene": "IRF2 (interferon regulatory factor 2)", "siRNA no.": 1, "total luciferase, z-score": -0.975, "total luciferase, % of control": 62.5}
{"gene": "IRF2 (interferon regulatory factor 2)", "siRNA no.": 2, "total luciferase, z-score": -0.617, "total luciferase, % of control": 69.6}
{"gene": "IRF2 (interferon regulatory factor 2)", "siRNA no.": 3, "total luciferase, z-score": 0.773, "total luciferase, % of control": 97.3}

As entered above:
Entry for EOMES (eomesodermin) #1 under “total luciferase, % of control”: 99.1
Result of ACP7 (acid phosphatase 7, tartrate resistant (putative)) #1 in “total luciferase, % of control”: 63.4
